According to publication doi:10.1101/2023.04.28.538665:

Target: mRFP-tagged Shank3 N-terminus (SPN+Ank) (rat) (UniProt Q9JLU4)
Test: co-IP

- binding: binds
Substance: HA-tagged Rap1a G12V (from UniProt P62834 1-184)

These are yes or no findings as the source states them, for the method shown. Binding seen in cells or lysates may run through a third protein. Binding calls can cover weak binding; strength is not graded here.
